# Experimental data from article PMC10382351, “In vivo evaluation of a novel ^18F-labeled PET radioligand for translocator protein 18 kDa (TSPO) in monkey brain” (European Journal of Nuclear Medicine and Molecular Imaging, 2023).
# Test system: 18 kDa translocator protein (TSPO)
# Assay: PET imaging of [^18F]SF51 in rhesus monkey brain with kinetic analysis (2TCM, Logan plot, Lassen plot)
# Type: in vivo
# Conditions: for (Logan-2TCM)/2TCM × 100 %: VT/fP, n=3
# Description: Electrocardiogram, body temperature, heart rate, and respiratory rate measures were monitored throughout the scan.
# Brain PET imaging was performed using a microPET Focus 220 camera (Siemens Medical Solution; Knoxville, TN). […] For baseline experiments, 20 mL of a vehicle containing 20% (2-hydroxypropyl)-β-cyclodextrin and two equivalents of HCl were injected intravenously 10 min before radioligand administration. For the blocked experiment, PK11195 was dissolved in vehicle and then injected intravenously (5 mg/kg) 10 min before radioligand injection for all three monkeys. One of the three monkeys underwent an additional blocked scan with 5 mg/kg of PBR28, performed using a MultiScan™ LFER 150 PET/CT (Mediso USA, LLC; Arlington, VA). The interval between baseline and blocked imaging sessions was at least three weeks in order to allow the monkey to recover from arterial blood sampling. Focus 220 PET images were histogrammed into 30 time frames (6 × 30, 3 × 60, 2 × 120, 4 × 300, and 15 × 600 s) and reconstructed using Fourier rebinning plus a two-dimensional filtered back-projection with scatter and attenuation correction. MultiScan LFER PET images were reconstructed with 3D-OSEM with two iterations and nine subsets and were corrected for scatter and attenuation.
# PET images were co-registered to a standardized monkey MRI template using PMOD software (PMOD version 4.1, PMOD Technologies Ltd.; Zurich, Switzerland). Thirty-three predefined regions of interest (ROIs) from a monkey brain template were applied to the co-registered PET images to obtain regional time-activity curves (Supplementary Table S2). Brain uptake was expressed as standardized uptake value (SUV), which normalizes for injected radioactivity and body weight. Using the brain time-activity curves and the radiometabolite-corrected arterial input function, the total VT was derived from a two-tissue compartment model (2TCM). Receptor occupancy by PK11195 and nondisplaceable distribution volume (VND/fP) of [^18F]SF51 were determined by an axes-transformed Lassen plot, where the y-axis reports the difference in VT between the baseline and the blocked scans, corrected by the respective fp values, and the x-axis reports the values at baseline (VTbase/fPbase).
structure (smiles),measurement,setting,value
CC[C@@H](C)N(C)C(=O)c1nc(-c2cccc([18F])c2)c2ccccc2n1 [[^18F]SF51],(Logan-2TCM)/2TCM × 100 %,"Baseline, Amygdala",-5.5%
same,(Logan-2TCM)/2TCM × 100 %,"Baseline, Cerebellum",-4.2%
same,(Logan-2TCM)/2TCM × 100 %,"Baseline, Cingulate Cortex",-4.6%
same,(Logan-2TCM)/2TCM × 100 %,"Baseline, Frontal Cortex",-4.3%
same,(Logan-2TCM)/2TCM × 100 %,"Baseline, Hippocampus",-4.1%
same,(Logan-2TCM)/2TCM × 100 %,"Baseline, Insula",-4.3%
same,(Logan-2TCM)/2TCM × 100 %,"Baseline, Occipital Cortex",-4.4%
same,(Logan-2TCM)/2TCM × 100 %,"Baseline, Parietal Cortex",-4.4%
same,(Logan-2TCM)/2TCM × 100 %,"Baseline, Striatum",-4.4%
same,(Logan-2TCM)/2TCM × 100 %,"Baseline, Temporal Cortex",-4.2%
same,(Logan-2TCM)/2TCM × 100 %,"Baseline, Thalamus",-4.4%
same,(Logan-2TCM)/2TCM × 100 %,"Baseline, Whole Brain",-4.4%
same,(Logan-2TCM)/2TCM × 100 %,"Blocked (PK11195), Amygdala",-0.3%
same,(Logan-2TCM)/2TCM × 100 %,"Blocked (PK11195), Cerebellum",-2.6%
same,(Logan-2TCM)/2TCM × 100 %,"Blocked (PK11195), Cingulate Cortex",-2.6%
same,(Logan-2TCM)/2TCM × 100 %,"Blocked (PK11195), Frontal Cortex",-2.6%
same,(Logan-2TCM)/2TCM × 100 %,"Blocked (PK11195), Hippocampus",-1.3%
same,(Logan-2TCM)/2TCM × 100 %,"Blocked (PK11195), Insula",-2.4%
same,(Logan-2TCM)/2TCM × 100 %,"Blocked (PK11195), Occipital Cortex",-1.7%
same,(Logan-2TCM)/2TCM × 100 %,"Blocked (PK11195), Parietal Cortex",-2.1%
same,(Logan-2TCM)/2TCM × 100 %,"Blocked (PK11195), Striatum",-1.5%
same,(Logan-2TCM)/2TCM × 100 %,"Blocked (PK11195), Temporal Cortex",-1.7%
same,(Logan-2TCM)/2TCM × 100 %,"Blocked (PK11195), Thalamus",-4.9%
same,(Logan-2TCM)/2TCM × 100 %,"Blocked (PK11195), Whole Brain",-1.8%
same,Negative bias of Logan-plot versus 2TCM,baseline scans,about 4%
same,Negative bias of Logan-plot versus 2TCM,blocked scans,~2%
same,Deviation of VT from that at 180 min,"monkey brain regions, within 100 min of imaging",≤ 10%
